# Data published in patent publication US8946381B2 (Phylogica Limited, priority 2006, dated 2015).
# Assay: peptide made by a vendor
# Conditions: whole synthesis
substance,measurement,value
"H-rerrsssqiGGsrisqyaGrrrqrrkkrG-NH2 (RERKSSSEIGGSRISQYAGRRRQRRKKRG; D-amino acids, retro-inverso, C-terminal amide; PYC35D-TAT peptide (the retroinverted form of PYC35 peptide comprising an N-terminal tat basic region protein transduction domain wherein all amino acids other than glycine are D-amino acids))",purity (crude or final not stated),purity>90%
